{
  "sequences": {"note": "By UniProt entry, the sequences of proteins in these tests, tags left out. Where a name states a change or a piece, a line headed by the entry shows the natural chain unless it says otherwise.", "UniProt Q01638": "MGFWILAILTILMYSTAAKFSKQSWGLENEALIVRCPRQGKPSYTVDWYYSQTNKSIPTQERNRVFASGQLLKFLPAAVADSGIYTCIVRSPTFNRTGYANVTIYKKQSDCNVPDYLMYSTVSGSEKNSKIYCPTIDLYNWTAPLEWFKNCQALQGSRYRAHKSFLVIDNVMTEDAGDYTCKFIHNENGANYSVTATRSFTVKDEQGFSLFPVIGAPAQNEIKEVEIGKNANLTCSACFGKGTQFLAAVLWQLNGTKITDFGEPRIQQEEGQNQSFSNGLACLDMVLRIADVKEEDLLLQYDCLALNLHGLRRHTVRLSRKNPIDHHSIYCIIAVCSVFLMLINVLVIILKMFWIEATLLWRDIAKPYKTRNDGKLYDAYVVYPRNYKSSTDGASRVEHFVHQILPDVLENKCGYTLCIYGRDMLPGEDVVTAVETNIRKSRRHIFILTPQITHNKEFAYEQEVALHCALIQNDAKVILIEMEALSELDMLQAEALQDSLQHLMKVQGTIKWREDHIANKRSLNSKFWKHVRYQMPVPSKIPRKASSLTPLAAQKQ"},
  "source": "PubChem BioAssay AID1259354",
  "about": "(Paczesny and Yang Labs, IUPUI and University of Michigan, 2018)",
  "note": "Out of some 78,000 compounds screened, about 1,800 (2.3%) were called active. This list was built around the results that the source calls inconclusive (neither active nor inactive); the mix of calls is not that of the screen. Cut-off read from the data, not from the text of the source: active = inhibition above about 30%; inconclusive = mostly about 10% to 28%; inactive = weaker than that.",
  "data": [
    {"biological_target": "Interleukin-1 receptor-like 1 (Homo sapiens) (UniProt Q01638)", "assay": "blocks human ST2 binding to IL-33, primary screen, biochemical, AlphaLISA (AID 1259354)", "settings": "AlphaLISA ST2-Fc/biotin-IL-33 interaction, 1 h; at 17 µM, active compounds read high", "values": [
      {"compound": "COc1ccccc1/C=C1/N=C(SCC(=O)Nc2cc(C)on2)N(c2ccccc2)C1=O", "inhibition": "inconclusive: 23%"},
      {"compound": "COc1ccc(N2CCCS2(=O)=O)cc1NC(=O)c1ccc(OC(C)C)cc1", "inhibition": "inconclusive: 10%"},
      {"compound": "O=C(COc1nsnc1N1CCOCC1)Nc1cccc(C(F)(F)F)c1", "inhibition": "inconclusive: 10%"},
      {"compound": "O=C(Nc1ccc([N+](=O)[O-])cc1)c1ccc(Br)o1", "inhibition": "inconclusive: 27%"},
      {"compound": "CN1CCN(c2nc3c(c(=O)n(C)c(=O)n3C)n2CCSc2ncccn2)CC1", "inhibition": "inactive"},
      {"compound": "COCCNC(=O)C[C@@H]1O[C@H](CNC(=O)Nc2ccc(C)cc2)[C@@H](O)[C@H]1O", "inhibition": "inconclusive: 11%"},
      {"compound": "C=CCNc1ccccc1C(=O)NCc1ccc2c(c1)n(C)c(=O)n2C", "inhibition": "inactive"},
      {"compound": "CC(C)CSc1nc2c(c(=O)[nH]1)C(c1ccc(F)cc1)C1=C(CC(C)(C)CC1=O)N2", "note": "(centres undefined)", "inhibition": "inconclusive: 16%"},
      {"compound": "CCOc1ccccc1NS(=O)(=O)c1cc(Br)cc2c1N(C(C)=O)C(C)C2", "note": "(centres undefined)", "inhibition": "inconclusive: 13%"},
      {"compound": "COc1cc(/C=C2\\C(=O)N(c3ccccc3)N=C2C)cc([N+](=O)[O-])c1O", "inhibition": "inconclusive: 26%"},
      {"compound": "O=C(NC[C@H]1O[C@@H](CO)[C@@H](O)[C@H]1N1CCOCC1)c1ccco1", "inhibition": "inconclusive: 13%"},
      {"compound": "Cc1nc(C(C)C)cc(N(C)Cc2ncccc2C)n1", "inhibition": "inconclusive: 15%"},
      {"compound": "O=C(O)CN1C(=O)C(=O)c2ccccc21", "inhibition": "inconclusive: 11%"},
      {"compound": "NS(=O)(=O)c1ccc(CCNC(=O)c2cc3ccccn3n2)cc1", "inhibition": "inconclusive: 24%"},
      {"compound": "COC(=O)c1nc2n(n1)C(c1cccc(Cl)c1)C1=C(CCCC1=O)N2", "note": "(centres undefined)", "inhibition": "inconclusive: 14%"},
      {"compound": "Cn1c(=O)c(-c2nc3ccccc3[nH]2)c(O)c2ccccc21", "inhibition": "inconclusive: 10%"},
      {"compound": "O=C(Nc1ncc([N+](=O)[O-])s1)c1cccc2ccccc12", "inhibition": "inconclusive: 11%"},
      {"compound": "O=C(O)CCC(CNS(=O)(=O)c1ccc([N+](=O)[O-])cc1)C(F)(F)F", "note": "(centres undefined)", "inhibition": "inactive"},
      {"compound": "Oc1cccc(-c2cn(CC3(c4cccc(F)c4)CCOCC3)nn2)c1", "inhibition": "inconclusive: 14%"},
      {"compound": "Cc1cnc(C(=O)N2CCn3nc(C(=O)NC4CC4)cc3C2)[nH]1", "inhibition": "inactive"},
      {"compound": "O=S(=O)(Nc1ccc(O)c(Cl)c1)c1cccs1", "inhibition": "inconclusive: 25%"},
      {"compound": "CCOC(=O)C1=NN(C(=O)Cc2ccccc2)C(O)(c2ccc(Cl)cc2)C1", "note": "(centres undefined)", "inhibition": "inconclusive: 13%"},
      {"compound": "CC(C)(C)c1ccnc(N[C@H]2CO[C@H]3[C@@H]2OC[C@@H]3NC(=O)CCCC(=O)O)n1", "inhibition": "inconclusive: 11%"},
      {"compound": "O=C(Nc1ccc2c(c1)OCO2)c1cc(-c2ccccc2O)on1", "inhibition": "inactive"},
      {"compound": "COc1cc(NC(=O)C2COc3ccccc3O2)cc(OC)c1", "note": "(centres undefined)", "inhibition": "inconclusive: 17%"},
      {"compound": "COC(=O)[C@@H]1C[C@@H](O)CN1C(=O)CCC(=O)NC1CCCCCC1", "inhibition": "inconclusive: 12%"},
      {"compound": "O=C(NCc1ccccc1)c1ccc(Br)cc1", "inhibition": "inconclusive: 23%"},
      {"compound": "COc1nccnc1-c1ccc(NC(C)=O)cc1", "inhibition": "inconclusive: 22%"},
      {"compound": "O=C(CCC1CCN(Cc2ccc3nonc3c2)CC1)N1CCC(Cc2ccccc2)CC1", "inhibition": "inconclusive: 14%"},
      {"compound": "Cc1ccc(-n2cccn2)c(CN2CCC(CO)(CCc3ccccc3)CC2)c1", "inhibition": "inconclusive: 23%"},
      {"compound": "CCc1nc(C2CC(=O)Nc3n[nH]c(-c4cccs4)c32)c(C)[nH]1", "note": "(centres undefined)", "inhibition": "inactive"},
      {"compound": "CCCC(=O)Nc1cccc(NC(=O)COc2cc(Cl)c(Cl)cc2Cl)c1", "inhibition": "inconclusive: 10%"},
      {"compound": "Oc1ccccc1C1OCC2(CO1)COC(c1ccccc1O)OC2", "note": "(centres undefined)", "inhibition": "inconclusive: 14%"},
      {"compound": "COc1cccc(CNc2ccc3c(c2)ncn3C)c1", "inhibition": "inconclusive: 11%"},
      {"compound": "Cc1cccc2nc(-c3ccccn3)c(Nc3ccc4c(c3)OCCO4)n12", "inhibition": "inconclusive: 10%"},
      {"compound": "Oc1ccccc1C=Nc1ccc2oc(-c3cccc(F)c3)nc2c1", "inhibition": "inconclusive: 18%"},
      {"compound": "CCOC(=O)C1C(=O)C=C(c2cccc(OC)c2)CC1c1ccc(OC)c(OC)c1", "note": "(centres undefined)", "inhibition": "inactive"},
      {"compound": "Cc1cccnc1-n1nc(C2CC2)nc1Cn1nc(C)c2ccccc2c1=O", "inhibition": "inconclusive: 11%"},
      {"compound": "O=C1NN(c2ccc(F)cc2)C(=O)/C1=C\\c1cccc(Br)c1", "inhibition": "inconclusive: 16%"},
      {"compound": "O=C(C#Cc1ccccc1)N1CCc2c([nH]c3ccccc23)C1c1ccccn1", "note": "(centres undefined)", "inhibition": "inconclusive: 11%"},
      {"compound": "CCn1cc(C(=O)NCCCN2CCC(C)CC2)c2cc(OC)c(OC)cc2c1=O", "inhibition": "inconclusive: 19%"},
      {"compound": "COCCn1c(CCc2nc3cccnc3n2CCOC)nc2cccnc21", "inhibition": "inconclusive: 21%"},
      {"compound": "CCCc1cc(CN(C)Cc2cnc(S(=O)(=O)CCC)n2CC2CCCO2)[nH]n1", "note": "(centres undefined)", "inhibition": "inconclusive: 10%"},
      {"compound": "Cc1cc([N+](=O)[O-])ccc1NC(=O)c1ccc(F)cc1", "inhibition": "inconclusive: 13%"},
      {"compound": "O=C(O)[C@H]1C[C@H](C(=O)NCc2ccccn2)CN(C/C=C/c2ccccc2)C1", "inhibition": "inconclusive: 10%"},
      {"compound": "CC(=O)N(CN1C(=O)c2cc(Cl)c(Cl)cc2C1=O)c1cccc(C)c1", "inhibition": "inconclusive: 18%"},
      {"compound": "CC(C)C(C)N(Cc1cccnc1)Cc1ccco1", "note": "(centres undefined)", "inhibition": "inconclusive: 20%"},
      {"compound": "C=C(C)C(C)(C)C(=O)N1CCN2C(=O)CNC(=O)C2C1", "note": "(centres undefined)", "inhibition": "inactive"},
      {"compound": "Cc1c(Cl)cccc1NC(=O)NCC1(O)CCCNCC1", "note": "(centres undefined)", "inhibition": "inactive"},
      {"compound": "CCCOc1ccc(/C=c2\\sc3nc(=O)c(C)nn3c2=O)cc1", "inhibition": "inactive"},
      {"compound": "Brc1ccc(C2Oc3ccccc3C3CC(c4cccs4)=NN32)o1", "note": "(centres undefined)", "inhibition": "inconclusive: 24%"},
      {"compound": "COC(=O)/C=C/C(C)=C/CC(O)/C(C)=C/CCC(C)C(C)O", "note": "(centres undefined)", "inhibition": "inconclusive: 19%"},
      {"compound": "O=C(/C=C1\\Sc2ccccc2N(Cc2ccc(F)cc2)C1=O)NCCc1ccccc1", "inhibition": "inconclusive: 26%"},
      {"compound": "Cc1ccc(-c2nsc(SCC(=O)Nc3ccc4c(c3)OCCO4)n2)cc1", "inhibition": "inactive"},
      {"compound": "O=C(O)c1cc(S(=O)(=O)N2CCCCC2)c(Cl)cc1Cl", "inhibition": "inactive"},
      {"compound": "CC(C)c1noc(C2CCCN2C(=O)c2coc3c2C(=O)CCC3)n1", "note": "(centres undefined)", "inhibition": "inconclusive: 14%"},
      {"compound": "Cc1nc(CC(=O)NC(c2nnc3n2CCNCC3)C(C)C)c(C)s1", "note": "(centres undefined)", "inhibition": "inactive"},
      {"compound": "O=C(Nc1ccc([N+](=O)[O-])cc1)c1ccco1", "inhibition": "inconclusive: 18%"},
      {"compound": "COC(=O)C(CCSC)NC(=O)c1ccc2c(Cl)c3c(nc2c1)CCCC3", "note": "(centres undefined)", "inhibition": "inconclusive: 16%"}
    ]}
  ]
}
